Experimental findings from publication PMC6894338 are described below.

The target of this test is Zygote arrest 1 (ZAR1), as used in the co-immunoprecipitation (human) (UniProt Q86SH2). As to the kind of experiment: co-IP; co-immunoprecipitation of ZAR1 with ZAR1, with and without the zinc-finger; tags, cells and conditions not shown (Figure S9e).

These are yes or no findings as the source states them, for the method shown. Binding seen in cells or lysates may run through a third protein. Some results given as binding are weak or reduced against the parent protein; the word gives no strength.

B1: Zygote arrest 1 (ZAR1), as used in the co-immunoprecipitation (protein, UniProt Q86SH2 1-424)
chain: MAALGDEVLDGYVFPACPPCSYRYPYPAATKGKGAAGGSWQQRGRGCLPASSPCSAGAASLSFPGCGRLTAAEYFDSYQRERLMALLAQVGPGLGPRARRAGSCDVAVQVSPRIDAAVQCSLGRRTLQRRARDPESPAGPGAEGTTGGGSFSQQPSRRGLEQGSPQNGAPRPMRFPRTVAVYSPLALRRLTAFLEGPGPAAGEQRSGASDGERGPPPARLQGPEEGEVWTKKAPRRPQSDDDGEAQAAVRASWEQPADGPELPPREAQEGEAAPRSALRSPGQPPSAGRARDGGDGREAAVAGEGPSPRSPELGKERLRFQFLEQKYGYYHCKDCNIRWESAYVWCVQGTNKVYFKQFCRTCQKSYNPYRVEDITCQSCKQTRCSCPVKLRHVDPKRPHRQDLCGRCKGKRLSCDSTFSFKYII
Consider B1, for which the binding result is on record as “binds”.
